These are yes or no findings as the source states them, for the method shown. Binding can be weak; no strength is given. Tags and fused reporters may be left off the sequences shown. For some of these results: Binding seen in cells or lysates may run through a third protein.

Binding data for 3 molecules are collected here from paper PMC7478753.

Experiment [1] deals with T1, GAL4 DNA-BD-NaD14 (DWARF 14, the receptor for strigolactone) (N. attenuata).
T1 sequence: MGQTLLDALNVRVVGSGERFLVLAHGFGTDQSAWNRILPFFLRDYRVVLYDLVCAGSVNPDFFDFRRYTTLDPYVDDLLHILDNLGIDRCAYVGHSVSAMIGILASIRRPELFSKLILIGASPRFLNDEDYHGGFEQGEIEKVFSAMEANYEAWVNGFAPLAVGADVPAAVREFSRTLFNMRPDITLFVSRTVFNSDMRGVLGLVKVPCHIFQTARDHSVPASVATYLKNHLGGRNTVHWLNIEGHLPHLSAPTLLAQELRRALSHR
Briefly: two-hybrid; Matchmaker Gold, Y2H Gold cells; BD-D14 as bait with AD fusions; growth on QDO (SD-Ade/-His/-Leu/-Trp) in the presence of rac-GR24 (5 uM), 30°C, 5-7 days.

Experiment [2] deals with NaSMXL6-YFP (N. attenuata). Briefly: pull-down; SMXL6/7-YFP from N. benthamiana leaf extract held on GFP-Trap-A beads and washed; 1 ug purified D14-GST added with/without 20 uM rac-GR24, 22°C, 1 hour; 50 mM Tris-Cl pH 7.0, 150 mM NaCl, 0.5% Tween 20; wash with 300 mM NaCl; blot with anti-GST; only the binder purified.
For experiment [3], the target named is NaSMXL7-YFP (N. attenuata). The description is as above.

For “AD-NaSMXL7 (suppressor of max2-like 7) (N. attenuata)”, the binding result in experiment [1] is given as “binds”. As to “AD-NaMAX2a (MORE AXILLARY GROWTH 2a, F-box protein) (N. attenuata)”, the binding result in experiment [1] was “binds”.

B1: GST-D14 (purified recombinant NaD14) (receptor, UniProt A0A314LHI7 1-267)
chain: T1 sequence
Consider B1, for which the binding result in experiment [2] and in experiment [3] was “binds” in each case.
